We go through eight compounds from patent publication US20220370615A1, “Prevention of Illicit Manufacture of Methamphetamine from Pseudoephedrine Using Food Flavor Excipients” (Satara Pharmaceuticals, priority 2021, published 2022).

Series [1] can be described thus: Reaction of excipient and pseudoephedrine with lithium in liquid ammonia (Li-NH3 reduction), methamphetamine quantified. The following applies: excipient 1.0 mmol + pseudoephedrine 1.0 mmol, lithium 5.0 mmol in liquid ammonia, about -20° C., about 1 hour; pseudoephedrine only = 100.
Series [2] can be described thus: Reaction of excipient and pseudoephedrine with red phosphorous and hydriodic acid (P-HI reduction), methamphetamine quantified. The settings on record: excipient 1.0 mmol + pseudoephedrine 1.0 mmol, 57% aqueous hydriodic acid, red phosphorous 1.6 mmol, 90-100° C., 1-1.5 hours; pseudoephedrine only = 100.

As to `Cc1cnc(C)c(C)n1` [2,3,5-Trimethylpyrazine], in series [1], the “Relative percentage of methamphetamine formation, Percent Methamphetamine, Li-NH3 Reduction” value (“Relative percentage … Li-NH3 Reduction” for short) worked out at 8%. Further, the “Relative percentage of methamphetamine formation, Percent Methamphetamine, P-HI Reduction” value (shortened to “Relative percentage … P-HI Reduction”) in series [2] amounted to 20%.
`CC(=O)c1nccs1` [2-Acetylthiazole]: in series [1], the “Relative percentage … Li-NH3 Reduction” value is listed as less than 1%.
For the compound `CCOc1cnc(C)cn1` [2-Ethoxy-5-methylpyrazine], the “Relative percentage … Li-NH3 Reduction” value in series [1] came to 7%. For the same compound, the “Relative percentage … P-HI Reduction” value in series [2] is on record as 15%.
For `CCOc1cncc(C)n1` [2-Ethoxy-6-methylpyrazine] the same measures were 4% and 13%.
For `COc1nccnc1CC(C)C` [2-Isobutyl-3-methoxypyrazine] the same measures were 2% and 27%.
As for `COc1nccnc1C` [2-Methoxy-3-methylpyrazine], in series [1], the “Relative percentage … Li-NH3 Reduction” value is recorded as less than 1%. The “Relative percentage … P-HI Reduction” value in series [2] is 2.0%.
With `CC(=O)c1cnccn1` [Acetylpyrazine], the “Relative percentage … Li-NH3 Reduction” value in series [1] is <<1%. For the same compound, the “Relative percentage … P-HI Reduction” value in series [2] turned out to be 6%.
`CC(C)COC(=O)c1ccccc1N` [Isobutyl anthranilate]: the “Relative percentage … Li-NH3 Reduction” value in series [1] was less than 1%. The “Relative percentage … P-HI Reduction” value in series [2] is recorded as 2.3%.
